Laboratory results as given in the supplement of paper PMC5949888.
± gives the standard deviation of the averaged measurements. Most values lie at the floor of the assay. Slopes are relative: functional sequences can read slightly below zero.

The substances below were run on Saccharomyces cerevisiae PS128 hsf1 delta, HSF1(1-493) fusion (assay: growth estimate (transactivation domain function in HSF1 fusion, heat-shock survival) (a.u. (slope of normalised read count over time)); higher = stronger growth at 37°C, i.e. more transactivation activity). Conditions: library: random library.
VELQGTIITVTNAFLVILFF gave a growth estimate of -0.245. In the case of WYASHG, the growth estimate is reported as < -0.25. With KRGGRQLDSARSLSEFRGPG the growth estimate was < -0.25. With SSLYRWRDT the growth estimate was < -0.25. In the case of RCYSALGAG, the growth estimate is reported as < -0.25. RSRQGSV was tested, and the growth estimate was < -0.25. In the case of AMCA, the growth estimate is reported as < -0.25. Substance YRGSKFV has a growth estimate of -0.246. For VNGARLRGGVGLH, the growth estimate was < -0.25. LIDMGALFTVEVQTAKIGSL was tested, and the growth estimate was -0.129. RNGDHRNGPIIKTIRSFVRR was tested, and the growth estimate was < -0.25. DCPRL was tested, and the growth estimate was < -0.25. For IACTYSNIVMVCQLATLKPS, the growth estimate was < -0.25. For HDGEI, the growth estimate was < -0.25. With SDTVMEQTSNEINWGGWYGP the growth estimate was < -0.25. In the case of GMII, the growth estimate is reported as < -0.25. With SLWPF the growth estimate was < -0.25. In the case of GRMGVGGQSPLRMSSLGTRG, the growth estimate is reported as < -0.25. With PEES the growth estimate was < -0.25. For YRVTR, the growth estimate was < -0.25. Substance VEV has a growth estimate of -0.242 ± 0.011. FKVRSPLLFFV was tested, and the growth estimate was < -0.25. TNRSPTVYGGYTGDRYRASP was tested, and the growth estimate was < -0.25. In the case of IQVPRVEKERLFCISTTEIQ, the growth estimate is reported as < -0.25. With GVSLMFDKFR the growth estimate was < -0.25. SECGIFANATK was tested, and the growth estimate was < -0.25. With LCHRRLGNLGQPCK the growth estimate was < -0.25. VVIR was tested, and the growth estimate was < -0.25. ELSVVTGMR was tested, and the growth estimate was < -0.25. With FRVGA the growth estimate was < -0.25. In the case of NFAQAILSLISYGLQQAPVL, the growth estimate is reported as < -0.25. In the case of GFQ, the growth estimate is reported as < -0.25. In the case of YSQKMENTSR, the growth estimate is reported as < -0.25. In the case of PGVYSSQRELSLPASGGALR, the growth estimate is reported as < -0.25. AESFYGGGYGK was tested, and the growth estimate was < -0.25. NTIVPGWLSVRRGWSSLRSG was tested, and the growth estimate was < -0.25. In the case of LHRIPMVMR, the growth estimate is reported as < -0.25. KHTYRMHVR gave a growth estimate of -0.248. In the case of PGP, the growth estimate is reported as < -0.25. For SLARSESAVA, the growth estimate was < -0.25. VDGQHLQGEKWTGSWRVNNR was tested, and the growth estimate was < -0.25. For LWRYIWQLSAYPGETNLQYF, the growth estimate was < -0.25. For SCGRQS, the growth estimate was < -0.25. DGNLATYQNLSRLVWT was tested, and the growth estimate was -0.245. In the case of FWELKGFNSILHRKDTFSPV, the growth estimate is reported as < -0.25. In the case of SRSPVESLRPHAQG, the growth estimate is reported as < -0.25. For CTL, the growth estimate was < -0.25. With AWLRVR the growth estimate was < -0.25. In the case of HFVYLFATSVCMKPSVRGSV, the growth estimate is reported as < -0.25. With GVPISLARAHYRLLFVQRTW the growth estimate was < -0.25. Substance HARDGSFEYSSRRSVSLQTV has a growth estimate of -0.243. Substance SGCVYLAGFPYSG has a growth estimate of -0.246. In the case of SHRITRGRPSAWVTRAKKNT, the growth estimate is reported as < -0.25. RVYR was tested, and the growth estimate was < -0.25. RVILQYM was tested, and the growth estimate was < -0.25. NVPGGLASPLLSK gave a growth estimate of -0.246. With IYQVPGFYTEIGVRYPSSLL the growth estimate was < -0.25. In the case of CEICDVGYRARPIG, the growth estimate is reported as < -0.25. For RESHLRLAAWSKAEAQGSRC, the growth estimate was < -0.25. Substance QPTKGQLAATSVIPIPGLL has a growth estimate of -0.224. In the case of VGPRTACSPEPRLGAS, the growth estimate is reported as < -0.25. In the case of MLNAEQASGARVCVFTI, the growth estimate is reported as < -0.25. With IQAQGRFSLAVVEHVDRKLV the growth estimate was < -0.25. In the case of LWPRHNRVDAKSSLLLVACV, the growth estimate is reported as < -0.25. With YRVDCNNIVSAYLLAFLVFV the growth estimate was -0.241. For PNSVVYE, the growth estimate was < -0.25. For MADLMRIRLGHGRQCDINEK, the growth estimate was < -0.25. With AGKASDHDPVQGGAPWVPS the growth estimate was < -0.25. In the case of LVSCVRVGCGSG, the growth estimate is reported as < -0.25. For NKSA, the growth estimate was < -0.25. In the case of WHSGAVAAIVMRAEGSTRRN, the growth estimate is reported as < -0.25. For CQSKCSGPSTTL, the growth estimate was < -0.25. In the case of TGRHSYSSFGVNMARCGCPD, the growth estimate is reported as < -0.25. In the case of LQFGSN, the growth estimate is reported as < -0.25. LQTRTRASGEGQVCQMCTPL was tested, and the growth estimate was < -0.25. For HIGSDYTPLYCFCDHVIWG, the growth estimate was < -0.25. PIPNNESAANID was tested, and the growth estimate was < -0.25. With TNRKPVNPIILNASEDTLTH the growth estimate was < -0.25. With VTSALYVVSMNPPLRQLQR the growth estimate was < -0.25. In the case of IPAFTMLQ, the growth estimate is reported as < -0.25. With VRLSPVTPRSRMASKAMLWH the growth estimate was < -0.25. With MCLII the growth estimate was < -0.25. For TLCTVRLLLLNNDPGVLNWV, the growth estimate was < -0.25.
